Measured values taken from the supplement of paper PMC6411743.
± gives the standard deviation of the averaged measurements. Only a part is listed here, and it is no random draw. Most entries show no effect beyond the scatter of the controls.

Chains of the proteins cited; added tags and fusions are not shown. Lines headed by an entry give the natural chain unless they say otherwise; changes in a name come on top.
UniProt P55809: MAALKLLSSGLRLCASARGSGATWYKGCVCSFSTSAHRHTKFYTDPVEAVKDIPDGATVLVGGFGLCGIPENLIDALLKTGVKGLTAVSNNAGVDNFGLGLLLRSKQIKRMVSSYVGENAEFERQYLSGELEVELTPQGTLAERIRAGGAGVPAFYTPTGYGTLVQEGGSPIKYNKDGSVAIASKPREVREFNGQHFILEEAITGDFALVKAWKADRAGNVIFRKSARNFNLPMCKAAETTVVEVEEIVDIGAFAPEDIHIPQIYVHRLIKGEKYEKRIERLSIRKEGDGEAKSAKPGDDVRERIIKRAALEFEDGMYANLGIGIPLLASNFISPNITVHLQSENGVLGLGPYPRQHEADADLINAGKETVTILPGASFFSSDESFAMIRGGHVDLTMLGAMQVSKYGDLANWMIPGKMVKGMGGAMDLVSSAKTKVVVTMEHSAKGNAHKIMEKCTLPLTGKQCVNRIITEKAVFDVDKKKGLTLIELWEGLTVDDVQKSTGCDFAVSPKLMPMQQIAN
UniProt Q02127: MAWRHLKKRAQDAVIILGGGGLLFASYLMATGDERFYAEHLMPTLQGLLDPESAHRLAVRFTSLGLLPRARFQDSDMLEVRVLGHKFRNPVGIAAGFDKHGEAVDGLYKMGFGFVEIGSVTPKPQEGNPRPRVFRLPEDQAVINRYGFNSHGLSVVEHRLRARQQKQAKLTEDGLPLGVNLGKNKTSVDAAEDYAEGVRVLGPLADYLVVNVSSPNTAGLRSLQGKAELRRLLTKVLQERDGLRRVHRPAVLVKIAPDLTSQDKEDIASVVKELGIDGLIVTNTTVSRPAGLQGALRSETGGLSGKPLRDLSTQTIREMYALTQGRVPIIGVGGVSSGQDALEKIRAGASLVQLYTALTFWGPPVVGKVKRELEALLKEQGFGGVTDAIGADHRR
UniProt P62253: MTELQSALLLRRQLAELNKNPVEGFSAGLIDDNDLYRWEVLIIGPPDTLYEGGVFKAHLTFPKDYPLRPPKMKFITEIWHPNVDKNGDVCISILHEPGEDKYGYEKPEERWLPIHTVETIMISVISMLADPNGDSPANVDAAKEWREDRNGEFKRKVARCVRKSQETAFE
UniProt P61981: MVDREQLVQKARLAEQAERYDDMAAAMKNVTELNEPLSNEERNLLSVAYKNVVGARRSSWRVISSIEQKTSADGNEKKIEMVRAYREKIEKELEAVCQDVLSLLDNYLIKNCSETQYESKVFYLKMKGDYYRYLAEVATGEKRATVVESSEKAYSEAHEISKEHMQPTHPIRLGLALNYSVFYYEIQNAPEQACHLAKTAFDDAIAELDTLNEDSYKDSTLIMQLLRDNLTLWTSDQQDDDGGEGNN
UniProt Q00403, whole entry: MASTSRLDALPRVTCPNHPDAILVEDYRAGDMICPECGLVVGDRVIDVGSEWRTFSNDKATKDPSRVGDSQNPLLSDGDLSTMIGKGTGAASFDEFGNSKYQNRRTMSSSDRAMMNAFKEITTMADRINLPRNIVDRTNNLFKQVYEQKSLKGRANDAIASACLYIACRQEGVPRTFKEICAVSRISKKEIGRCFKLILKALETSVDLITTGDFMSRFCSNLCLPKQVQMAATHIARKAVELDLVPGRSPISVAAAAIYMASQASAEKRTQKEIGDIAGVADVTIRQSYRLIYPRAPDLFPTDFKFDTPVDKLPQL
UniProt P61599, whole entry: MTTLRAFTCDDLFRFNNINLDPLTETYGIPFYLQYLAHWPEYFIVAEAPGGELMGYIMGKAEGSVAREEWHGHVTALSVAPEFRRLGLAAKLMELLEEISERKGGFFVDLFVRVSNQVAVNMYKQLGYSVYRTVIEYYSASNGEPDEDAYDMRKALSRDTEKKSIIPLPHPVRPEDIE
UniProt Q00765: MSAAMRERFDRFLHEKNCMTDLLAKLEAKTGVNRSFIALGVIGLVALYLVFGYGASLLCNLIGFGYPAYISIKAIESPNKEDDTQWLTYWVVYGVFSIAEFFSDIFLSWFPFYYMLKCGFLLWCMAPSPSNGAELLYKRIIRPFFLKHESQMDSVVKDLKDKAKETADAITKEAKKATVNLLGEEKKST
UniProt P61289: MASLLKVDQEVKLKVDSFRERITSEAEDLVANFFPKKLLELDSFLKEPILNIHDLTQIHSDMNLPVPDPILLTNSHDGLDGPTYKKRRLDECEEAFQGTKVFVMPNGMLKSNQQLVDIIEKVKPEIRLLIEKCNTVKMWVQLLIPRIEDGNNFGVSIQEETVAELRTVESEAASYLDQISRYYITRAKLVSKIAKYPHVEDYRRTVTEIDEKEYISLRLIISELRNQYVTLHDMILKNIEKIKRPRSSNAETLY
UniProt P57740: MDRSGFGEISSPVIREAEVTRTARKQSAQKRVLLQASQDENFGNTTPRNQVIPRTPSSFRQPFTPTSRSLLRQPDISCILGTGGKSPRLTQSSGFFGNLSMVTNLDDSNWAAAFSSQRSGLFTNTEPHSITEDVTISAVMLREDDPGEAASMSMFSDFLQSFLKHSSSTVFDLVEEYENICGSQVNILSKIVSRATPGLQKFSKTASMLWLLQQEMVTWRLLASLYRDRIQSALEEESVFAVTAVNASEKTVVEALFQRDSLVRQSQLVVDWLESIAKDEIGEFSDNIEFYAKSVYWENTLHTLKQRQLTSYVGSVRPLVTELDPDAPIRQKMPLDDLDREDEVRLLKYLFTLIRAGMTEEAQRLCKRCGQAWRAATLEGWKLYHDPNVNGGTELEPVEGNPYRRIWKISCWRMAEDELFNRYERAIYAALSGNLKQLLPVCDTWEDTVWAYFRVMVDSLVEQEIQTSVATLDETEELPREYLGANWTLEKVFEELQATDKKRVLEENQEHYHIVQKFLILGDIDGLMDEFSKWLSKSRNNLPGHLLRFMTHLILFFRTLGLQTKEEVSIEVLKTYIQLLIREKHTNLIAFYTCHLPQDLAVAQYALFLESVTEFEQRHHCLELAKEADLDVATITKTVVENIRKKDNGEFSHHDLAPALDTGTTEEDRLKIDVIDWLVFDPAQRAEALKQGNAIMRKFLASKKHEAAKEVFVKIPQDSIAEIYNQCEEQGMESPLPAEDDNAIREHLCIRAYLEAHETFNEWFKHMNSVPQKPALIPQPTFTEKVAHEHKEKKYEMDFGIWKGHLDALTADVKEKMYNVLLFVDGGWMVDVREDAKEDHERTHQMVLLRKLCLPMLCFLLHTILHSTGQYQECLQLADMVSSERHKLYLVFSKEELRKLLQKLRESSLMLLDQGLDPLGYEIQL
UniProt P60228, whole entry: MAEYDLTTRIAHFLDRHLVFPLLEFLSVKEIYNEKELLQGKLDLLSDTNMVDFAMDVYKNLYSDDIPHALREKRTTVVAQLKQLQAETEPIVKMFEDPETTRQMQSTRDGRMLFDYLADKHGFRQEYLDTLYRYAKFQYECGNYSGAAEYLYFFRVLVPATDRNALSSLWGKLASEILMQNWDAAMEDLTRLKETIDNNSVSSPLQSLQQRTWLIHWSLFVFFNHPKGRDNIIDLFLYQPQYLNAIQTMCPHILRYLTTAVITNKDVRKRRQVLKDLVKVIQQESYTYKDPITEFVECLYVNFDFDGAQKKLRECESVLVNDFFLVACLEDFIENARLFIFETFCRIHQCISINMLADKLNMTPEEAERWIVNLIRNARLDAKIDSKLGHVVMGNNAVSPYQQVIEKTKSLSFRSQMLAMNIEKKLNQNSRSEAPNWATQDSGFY
UniProt P78540: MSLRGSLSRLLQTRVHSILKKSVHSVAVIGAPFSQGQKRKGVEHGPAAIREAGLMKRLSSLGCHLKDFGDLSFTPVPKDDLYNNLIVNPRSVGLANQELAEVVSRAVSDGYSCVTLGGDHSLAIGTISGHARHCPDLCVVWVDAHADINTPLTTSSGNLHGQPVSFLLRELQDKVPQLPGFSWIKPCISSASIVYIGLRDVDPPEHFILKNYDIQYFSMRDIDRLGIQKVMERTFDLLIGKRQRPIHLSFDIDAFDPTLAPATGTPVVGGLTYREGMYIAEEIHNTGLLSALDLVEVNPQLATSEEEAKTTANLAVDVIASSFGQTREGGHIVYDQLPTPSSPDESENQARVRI
UniProt Q00796: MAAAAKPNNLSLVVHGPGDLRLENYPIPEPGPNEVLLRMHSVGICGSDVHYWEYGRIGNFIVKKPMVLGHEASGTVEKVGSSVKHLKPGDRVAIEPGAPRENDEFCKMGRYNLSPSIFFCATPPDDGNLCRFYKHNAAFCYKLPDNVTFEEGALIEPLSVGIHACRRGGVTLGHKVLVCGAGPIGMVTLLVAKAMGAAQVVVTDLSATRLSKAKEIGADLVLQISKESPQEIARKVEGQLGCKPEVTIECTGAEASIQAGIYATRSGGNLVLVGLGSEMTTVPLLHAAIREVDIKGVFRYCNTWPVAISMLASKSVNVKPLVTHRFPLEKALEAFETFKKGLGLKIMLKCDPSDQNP
UniProt P60891: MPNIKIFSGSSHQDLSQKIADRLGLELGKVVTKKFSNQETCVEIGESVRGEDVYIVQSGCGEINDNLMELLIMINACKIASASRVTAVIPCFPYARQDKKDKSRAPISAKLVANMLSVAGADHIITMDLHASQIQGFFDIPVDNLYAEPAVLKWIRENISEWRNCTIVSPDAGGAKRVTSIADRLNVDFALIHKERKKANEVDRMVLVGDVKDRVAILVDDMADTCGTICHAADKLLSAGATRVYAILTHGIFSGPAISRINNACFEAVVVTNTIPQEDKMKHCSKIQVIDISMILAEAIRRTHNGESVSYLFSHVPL
UniProt P62834: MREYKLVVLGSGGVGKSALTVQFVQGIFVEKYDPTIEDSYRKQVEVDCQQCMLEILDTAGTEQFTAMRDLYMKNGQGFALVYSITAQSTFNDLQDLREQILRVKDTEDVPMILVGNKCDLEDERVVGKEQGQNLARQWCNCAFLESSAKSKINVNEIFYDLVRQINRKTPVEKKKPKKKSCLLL
UniProt Q00169: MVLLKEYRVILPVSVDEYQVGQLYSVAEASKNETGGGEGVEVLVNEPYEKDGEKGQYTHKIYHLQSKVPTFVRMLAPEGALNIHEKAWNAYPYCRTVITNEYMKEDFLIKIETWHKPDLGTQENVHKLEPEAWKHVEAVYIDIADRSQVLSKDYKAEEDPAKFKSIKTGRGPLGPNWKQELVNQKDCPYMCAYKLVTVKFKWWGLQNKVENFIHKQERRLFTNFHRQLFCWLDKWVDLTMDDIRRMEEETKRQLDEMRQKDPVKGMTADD
UniProt P83436: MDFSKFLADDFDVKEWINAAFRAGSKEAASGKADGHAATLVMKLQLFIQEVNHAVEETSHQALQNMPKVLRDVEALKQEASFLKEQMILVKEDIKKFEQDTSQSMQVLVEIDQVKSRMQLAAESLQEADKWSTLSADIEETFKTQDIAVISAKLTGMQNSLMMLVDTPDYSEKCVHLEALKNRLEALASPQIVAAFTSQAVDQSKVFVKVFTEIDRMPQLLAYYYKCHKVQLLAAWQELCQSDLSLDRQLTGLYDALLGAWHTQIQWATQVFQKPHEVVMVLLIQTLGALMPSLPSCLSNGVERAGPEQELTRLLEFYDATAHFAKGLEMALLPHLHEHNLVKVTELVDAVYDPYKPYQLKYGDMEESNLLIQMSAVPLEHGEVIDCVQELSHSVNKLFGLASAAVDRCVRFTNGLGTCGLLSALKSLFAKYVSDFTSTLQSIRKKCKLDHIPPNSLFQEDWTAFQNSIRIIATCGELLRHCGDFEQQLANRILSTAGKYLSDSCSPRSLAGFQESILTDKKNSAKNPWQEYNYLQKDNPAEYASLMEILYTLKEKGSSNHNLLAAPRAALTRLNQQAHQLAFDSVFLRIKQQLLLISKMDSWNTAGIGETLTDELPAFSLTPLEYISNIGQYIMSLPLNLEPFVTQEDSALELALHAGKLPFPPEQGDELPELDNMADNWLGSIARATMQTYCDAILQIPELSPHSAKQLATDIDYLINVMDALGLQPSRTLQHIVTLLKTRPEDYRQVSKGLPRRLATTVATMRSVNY
UniProt P62312: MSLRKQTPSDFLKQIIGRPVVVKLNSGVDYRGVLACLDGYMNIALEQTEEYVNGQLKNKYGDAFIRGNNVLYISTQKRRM
UniProt Q04760: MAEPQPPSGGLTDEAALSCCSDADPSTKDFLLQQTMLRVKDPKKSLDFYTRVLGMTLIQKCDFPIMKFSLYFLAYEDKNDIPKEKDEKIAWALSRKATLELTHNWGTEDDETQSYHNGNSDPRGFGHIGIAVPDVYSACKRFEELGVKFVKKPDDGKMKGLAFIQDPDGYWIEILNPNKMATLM
UniProt P60468, whole entry: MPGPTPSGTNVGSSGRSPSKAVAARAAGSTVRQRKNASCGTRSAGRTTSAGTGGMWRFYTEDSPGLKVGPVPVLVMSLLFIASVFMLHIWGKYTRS
UniProt P78346: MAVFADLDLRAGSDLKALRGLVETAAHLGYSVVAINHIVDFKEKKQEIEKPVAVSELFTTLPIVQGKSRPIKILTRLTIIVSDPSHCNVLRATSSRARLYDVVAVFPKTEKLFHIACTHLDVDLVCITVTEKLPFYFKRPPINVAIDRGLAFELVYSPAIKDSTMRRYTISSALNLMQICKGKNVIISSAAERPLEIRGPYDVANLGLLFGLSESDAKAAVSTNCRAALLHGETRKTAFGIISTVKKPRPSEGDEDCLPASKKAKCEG

Each target was assayed with Nc1ncnc2c1ncn2[C@@H]1O[C@H](COP(=O)(O)OP(=O)(O)NP(=O)(O)O)[C@@H](O)[C@H]1O [adenylyl imidodiphosphate] (assay: NP40-soluble protein abundance relative to vehicle (solubility fold change) (ratio); higher = more soluble protein in presence of AMP-PNP). Conditions: concentration: 0.1mM.
Method in brief: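 Each value is a fold change relative to the detergent-processed vehicle, calculated per replicate from vsn-normalised intensities. Jurkat crude lysate received eight concentrations (0.1 to 10 mM) for 10 min at room temperature and 3 min at 37 °C, then was solubilised in 0.8% NP40 with benzonase (60 min, 4 °C). The ultracentrifuged supernatant was TMT-labelled and run by LC-MS/MS in three independent experiments.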

| Target | NP40-soluble protein abundance |
| --- | --- |
| UniProt P55809 and related entries | 1.01 ± 0.033 |
| UniProt Q05086 and related entries | 0.9906 ± 0.0026 |
| DHODH (UniProt Q02127) | 1.004 ± 0.008 |
| UniProt P62253 | 0.99 ± 0.024 |
| UniProt P61981 | 0.953 ± 0.041 |
| GTF2B (UniProt Q00403) | 0.995 ± 0.034 |
| NAA20 (UniProt P61599) | 1.01 ± 0.058 |
| ARF3 (UniProt P61204) | 1.04 ± 0.054 |
| UniProt Q02040 | 1 ± 0.041 |
| RPL38 (UniProt P63173) | 1 ± 0.042 |
| REEP5 (UniProt Q00765) | 0.962 ± 0.019 |
| UniProt Q05469 and related entries | 0.999 ± 0.031 |
| UniProt P61289 and related entries | 0.979 ± 0.052 |
| UniProt Q00266 and related entries | 1.03 ± 0.044 |
| UniProt P61088 | 1.02 ± 0.049 |
| RPL10A (UniProt P62906) | 1.042 ± 0.0035 |
| NUP107 (UniProt P57740) | 0.989 ± 0.029 |
| UniProt P62269 | 1.03 ± 0.015 |
| UniProt P62263 | 1.01 ± 0.087 |

| Target | NP40-soluble protein abundance |
| --- | --- |
| UniProt P62273 | 1.06 ± 0.059 |
| UniProt P60228 | 1.05 ± 0.028 |
| PLCB3 (UniProt Q01970) | 0.988 ± 0.034 |
| ARG2 (UniProt P78540) | 0.9956 ± 0.0086 |
| TFAP4 (UniProt Q01664) | 0.99 ± 0.038 |
| SORD (UniProt Q00796) | 0.953 ± 0.049 |
| UniProt P82912 and related entries | 1.01 ± 0.057 |
| UniProt P78563 and related entries | 0.9962 ± 0.0078 |
| UniProt P60891 | 0.896 ± 0.039 |
| UniProt P62834 | 1.01 ± 0.02 |
| PITPNA (UniProt Q00169) | 0.981 ± 0.014 |
| COG7 (UniProt P83436) | 1.01 ± 0.027 |
| UniProt P62312 | 1.01 ± 0.045 |
| MRPS25 (UniProt P82663) | 0.991 ± 0.035 |
| UniProt Q03933 and related entries | 1.01 ± 0.04 |
| UniProt Q04760 and related entries | 0.992 ± 0.056 |
| SEC61B (UniProt P60468) | 1.01 ± 0.036 |
| UniProt P78346 and related entries | 1.04 ± 0.046 |
| UniProt Q03001 and related entries | 0.982 ± 0.073 |

Same assay, conditions: concentration: 0.5mM

| Target | NP40-soluble protein abundance |
| --- | --- |
| UniProt P55809 and related entries | 1.02 ± 0.054 |
| UniProt Q05086 and related entries | 0.976 ± 0.022 |
| DHODH (UniProt Q02127) | 0.969 ± 0.047 |
| UniProt P62253 | 0.99 ± 0.056 |
| UniProt P61981 | 1.02 ± 0.09 |
| GTF2B (UniProt Q00403) | 0.981 ± 0.042 |
| NAA20 (UniProt P61599) | 1.03 ± 0.064 |
| ARF3 (UniProt P61204) | 1.03 ± 0.1 |
| UniProt Q02040 | 0.961 ± 0.029 |
| RPL38 (UniProt P63173) | 0.997 ± 0.054 |
| REEP5 (UniProt Q00765) | 1.03 ± 0.087 |
| UniProt Q05469 and related entries | 0.996 ± 0.029 |
| UniProt P61289 and related entries | 0.944 ± 0.091 |
| UniProt Q00266 and related entries | 0.993 ± 0.08 |
| UniProt P61088 | 1.039 ± 0.0086 |
| RPL10A (UniProt P62906) | 1.02 ± 0.033 |
| NUP107 (UniProt P57740) | 0.986 ± 0.032 |
| UniProt P62269 | 0.99 ± 0.034 |
| UniProt P62263 | 1.02 ± 0.051 |

| Target | NP40-soluble protein abundance |
| --- | --- |
| UniProt P62273 | 1.032 ± 0.0065 |
| UniProt P60228 | 1.04 ± 0.035 |
| PLCB3 (UniProt Q01970) | 0.986 ± 0.025 |
| ARG2 (UniProt P78540) | 1.01 ± 0.015 |
| TFAP4 (UniProt Q01664) | 0.987 ± 0.046 |
| SORD (UniProt Q00796) | 1.01 ± 0.058 |
| UniProt P82912 and related entries | 1.07 ± 0.072 |
| UniProt P78563 and related entries | 1 ± 0.021 |
| UniProt P60891 | 0.851 ± 0.034 |
| UniProt P62834 | 0.985 ± 0.034 |
| PITPNA (UniProt Q00169) | 0.989 ± 0.033 |
| COG7 (UniProt P83436) | 1 ± 0.026 |
| UniProt P62312 | 1.02 ± 0.089 |
| MRPS25 (UniProt P82663) | 0.98 ± 0.026 |
| UniProt Q03933 and related entries | 1.03 ± 0.065 |
| UniProt Q04760 and related entries | 1.02 ± 0.043 |
| SEC61B (UniProt P60468) | 1.04 ± 0.049 |
| UniProt P78346 and related entries | 0.971 ± 0.043 |
| UniProt Q03001 and related entries | 0.988 ± 0.064 |
